Substitutions are numbered along the chain they refer to. No constants are given. Whether binding was seen depends on the method and setting. Some binding calls cover weakened binding; strength is not graded here. For some assays here: Sequences can lack the tags named with a protein.
Key:
[1] = molecular target: TLR4 containing N-terminal HA-tag, stably transfected in CHO (EL1) cells (UniProt O00206); assay: FACS with anti-His on TLR4 transfected cells
[2] = molecular target: TLR4 containing N-terminal HA-tag, stably transfected in CHO (EL1) cells (UniProt O00206); assay: FACS with anti-His on TLR4 transfected cells, 16 hr incubation
[3] = molecular target: TLR4 containing N-terminal HA-tag, stably transfected in CHO (EL1) cells (UniProt O00206); assay: FACS with anti-His on TLR4 transfected EL1 (CHO) cells, 15 min incubation
[4] = molecular target: TLR4 containing N-terminal HA-tag, stably transfected in CHO (EL1) cells (UniProt O00206); assay: FACS with anti-His on TLR4 transfected cells, 15 min and 16 hr incubation
[5] = molecular target: TLR4 containing N-terminal HA-tag, stably transfected in CHO (EL1) cells (UniProt O00206); assay: FACS with anti-His on TLR4 transfected EL-1 (CHO) cells
[6] = molecular target: TLR4 containing N-terminal HA-tag, stably transfected in CHO (EL1) cells (UniProt O00206); assay: FACS on TLR4 transfected cells and pull-down with extracellular TLR4
[7] = molecular target: TLR4 containing N-terminal HA-tag, stably transfected in CHO (EL1) cells (UniProt O00206); assay: FACS with anti-His on TLR4 transfected EL1 cells, 5 ug/ml of gel filtration fractions of sMD-2, 15 min
[8] = molecular target: extracellular portion of TLR4 with a 6His tag and S-tag (UniProt O00206); assay: co-expression in High Five insect cells, capture on S-agarose, non-reducing SDS-PAGE and anti-His western blot
[9] = molecular target: extracellular portion of TLR4 with a 6His tag and S-tag (UniProt O00206); assay: co-expression and purification on S-agarose; same result when the purified proteins were mixed and immunoprecipitated with S-agarose

Amino acid sequences for entries named in this document (tags omitted). A change or cut given only in a name is not applied to a line headed by its entry. Chains listed by the source or under a name are the forms on record and can include a tag or linker. Residues count along the entry.
UniProt O00206: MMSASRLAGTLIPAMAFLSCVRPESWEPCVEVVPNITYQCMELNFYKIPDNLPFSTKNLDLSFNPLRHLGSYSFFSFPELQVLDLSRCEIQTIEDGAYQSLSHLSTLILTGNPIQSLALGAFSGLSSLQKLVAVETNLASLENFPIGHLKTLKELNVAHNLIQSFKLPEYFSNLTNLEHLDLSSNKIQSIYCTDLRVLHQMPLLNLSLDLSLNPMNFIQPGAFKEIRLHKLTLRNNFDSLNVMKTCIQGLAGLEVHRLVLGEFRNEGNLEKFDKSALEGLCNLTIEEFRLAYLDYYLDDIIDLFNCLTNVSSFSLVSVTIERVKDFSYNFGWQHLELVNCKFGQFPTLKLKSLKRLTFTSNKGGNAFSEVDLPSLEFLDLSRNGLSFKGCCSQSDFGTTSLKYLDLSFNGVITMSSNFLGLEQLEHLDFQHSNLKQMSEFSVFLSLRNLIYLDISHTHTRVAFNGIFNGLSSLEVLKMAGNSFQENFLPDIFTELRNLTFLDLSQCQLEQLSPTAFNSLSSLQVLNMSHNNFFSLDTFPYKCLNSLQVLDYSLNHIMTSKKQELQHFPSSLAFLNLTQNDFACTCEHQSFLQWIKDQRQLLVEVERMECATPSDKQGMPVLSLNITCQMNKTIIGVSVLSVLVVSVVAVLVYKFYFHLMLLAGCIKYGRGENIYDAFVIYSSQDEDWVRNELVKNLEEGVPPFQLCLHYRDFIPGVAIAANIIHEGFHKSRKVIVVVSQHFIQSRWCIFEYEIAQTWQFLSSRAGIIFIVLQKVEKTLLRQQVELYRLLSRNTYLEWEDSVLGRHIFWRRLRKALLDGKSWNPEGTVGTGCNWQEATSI
TLR4 containing N-terminal HA-tag, stably transfected in CHO (EL1) cells: residues 24-839 of O00206
extracellular portion of TLR4 with a 6His tag and S-tag: residues 24-631 of O00206

Measured: binding

B1: soluble MD-2 alanine replacement mutant 125-129 (protein, not shown: small tags and cut ends)
chain: QKQYWVCNSSDASISYTYCDKMQYPISINVNPCIELKGSKGLLHIFYIPRRDLKQLYFNLYITVNTMNLPKRKEVICRGSDDDYSFCRALKGETVNTTISFSFKGIAAAAAKYKCVVEAISGSPEEMLFCLEFVILHQPNSN
binds: [1] | [2] | [3]

B2: soluble MD-2 alanine replacement mutant 38-42 (protein, not shown: small tags and cut ends)
chain: EAQKQYWVCNSSDASISYTYCAAAAAPISINVNPCIELKGSKGLLHIFYIPRRDLKQLYFNLYITVNTMNLPKRKEVICRGSDDDYSFCRALKGETVNTTISFSFKGIKFSKGKYKCVVEAISGSPEEMLFCLEFVILHQPNSN
binds: [1] | [2] | [3]

B3: unglycosylated MD-2 mutant NQ (N26 and N114 replaced with glutamine) (protein, not shown: small tags and cut ends)
chain: B2 chain with N10Q, A22D, A23K, A24M, A25Q, A26Y, N98Q
binds: [1] | [4]

B4: soluble MD-2 wild type (human MD-2 with C-terminal His-tag, from insect cells) (other)
chain: B2 chain with A22D, A23K, A24M, A25Q, A26Y
notes: Expressed with the gp64 signal peptide in place of its own; The purified protein is a mixture of monomer and disulfide-linked oligomers; also called sMD-2; sMD-2 WT; not shown: C-terminal V5/His tag of the vector (pBlueBac4.5/V5-His or pBac11)
not listed: [1] | [3] | [4]
binds: all other assays above
